Consider 2 molecules from patent US12630620 (dated 2026).

No constants are given. Whether binding was seen depends on the method and setting. Some entries that bind do so weakly or less than the wild type.

This experiment has as its target T1, commercial GDF15 recombinant protein (R&D, 9279-GD) (UniProt Q99988 197-308).
T1 chain: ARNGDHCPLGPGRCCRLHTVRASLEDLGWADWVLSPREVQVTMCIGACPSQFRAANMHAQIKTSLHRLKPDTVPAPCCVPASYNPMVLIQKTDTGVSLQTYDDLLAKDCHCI
In words: SPR; GDF15 recombinant protein immobilised.

B1: anti-GDF15 neutralizing monoclonal antibody G1 (antibody, V domains shown)
VH: DVQLQESGPGLVKPSQSLSLTCTVTGYSITSAYAWNWIRQFPGNKLEWMGYISYSGSTSYNPSLKSRISITRDTSKNQFFLQFNSVTTEDTATYYCARGGDAEDYWGQGTTLTVSS
VL: DIQMTQSPASLSVSVGETVTITCRASENIYSNLAWFQQKQGKSPQLLVYVATNLVDGVPSRFSGSGSGTQYSLKINSLQSEDFGTYYCQHFWGTPWTFGGGTKLEIK
Turning to B1, the binding entry was “binds”.

B2: anti-GDF15 neutralizing monoclonal antibody G2 (antibody, V domains shown)
VH: QVQLQQSGAELARPGASVKLSCKASGYTFTDYYINWVKQRTGQGLEWIGEIYPGSGNTYYNEKFKGKATLTADKSSSTAYMQLSSLTSEDSAVYFCARVRALLRPLAMDYWGQGTSVTVSS
VL: QIVLSQSPAILSASPGEKVTMTCRASSSVSYMHWYQQKPGSSPKPWIYATSNLASGVPARFSGSGSGTSYSLTISRVEAEDAATYYCQQWSSNPPFTFGSGTKLEIK
In the case of B2, the binding entry is “binds”.
